At least one structure is not confirmed: it was looked up by name or label, or the drawing left a doubt.
Key:
[1] = test system: scallop Patinopecten yessoensis; conditions: administration in vivo; cited from earlier work
C. virginica [2] = experiment: Visual and histological assessment of gonadal condition after estradiol-17β injection; format: in vivo, Crassostrea virginica; conditions: for gonad development compared with controls: visual observation
Pacific oyster C. gigas = conditions: in vivo; cited from earlier work
[3] = test system: serotonin receptor on oocyte surfaces; conditions: in vitro; cited from earlier work
[4] = test system: ovarian pieces of the scallop; conditions: cited from earlier work
oysters [5] = experiment: Presence of prominent genital canals 14 days after estradiol-17β injection; format: in vivo, Crassostrea virginica; conditions: contingency-table Chi-squared analysis of Table 2
Experimental: In another experiment, conducted in May in Grand Isle, La., animals were injected either with 0 (control), 37.5 ng/g, or 74 ng/g of estradiol-17β. After 14 days, animals were evaluated using the traditional methodology of assaying the presence of prominent genital canals, indicative of mature animals that are ready to spawn. These animals were not subjected to serotonin treatment, but rather were sacrificed for histological examination to establish a somatic-gonadal ratio index. […] Data analysis was performed using GraphPad InStat software. The data reported in Table 2 are conservative, in the following sense: During the trial period, the water temperature decreased from 23° C. to 18° C., and then increased to 22° C., all within a thirty-six hour period. Such a temperature change is alone often sufficient to trigger spawning in the wild.

C. gigas = conditions: cited from earlier work
oysters [6] = experiment: Example 7: planned trials of serotonin-induced spawning in estradiol-treated animals; format: in vivo, Crassostrea virginica; conditions: prime of the reproductive season
C. virginica [7] = experiment: Spawning response of estradiol-17β-injected oysters to serotonin stimulus after normal spawning season; format: in vivo, Crassostrea virginica
Experimental: A series of initial experiments assayed the response of C. virginica to low doses of estradiol-17β. These trials were undertaken in August and September, at the end of the normal maturation and spawning season of this species on the Gulf coast. Experiments typically ran for two weeks following the injection of a single dose of estradiol-17β into the […] muscle. (Injections were made through a small hole drilled in the shell.) The estradiol dosage for each animal was calculated based on wet body tissue mass of the whole animal, as estimated from its shell length. (These estimates were based on linear regression from measurements of shell lengths and wet body mass from 62 mixed-sex oysters that had been harvested in July). […] (The normal physiological level is 1.5 ng per gram wet weight. So a 5× dosage is 7.5 ng per gram wet weight, […]) Responses to the estradiol treatment were based on visual assessment of gonadal condition, on the response of the excised whole animal to a solution of 0.01 mM 5-hydroxytryptamine during a 45 min treatment period, and on histological examination of samples of the oyster taken through the body mass containing the gonadal region.
The three trials summarized in Table 1 were analyzed using a yes/no non-parametric chi-squared analysis.

## C[C@]12CC[C@@H]3c4ccc(O)cc4CC[C@H]3[C@@H]1CC[C@@H]2O [estradiol-17β]
[1]
  levels of catecholamines in the gonad: decreased levels of catecholamines in the gonad
C. virginica [2]; after treatment with serotonin
  free oocytes in gonadal acini (histology): substantial numbers of free oocytes in the open spaces
C. virginica [2]; high doses (20×)
  gonad development compared with controls: much greater gonad development than did the controls
C. virginica [2]; lower 5× doses
  gonad development compared with controls: notably less developed, but still considerably more developed than controls
Pacific oyster C. gigas
  vitellin (yolk protein) formation in the ovary: promoted vitellin (yolk protein) formation
[3]
  formation of the serotonin receptor on oocyte surfaces: stimulated
[4]; in vitro, dissected ovarian pieces
  direct action on release of eggs: no direct action on the release of eggs
[4]; pre-incubation with estradiol-17β, isolated ovarian pieces
  release of eggs upon incubation with serotonin: accelerated the release of eggs
Oysters [5]
  difference between experimental and control animals showing prominent genital canals: significantly different (P<0.005) and was dose dependent (P<0.001)
C. gigas
  sex reversal: could induce sex reversal from male to female
Oysters [6]
  expected spawning and meiotic synchrony compared to control animals: significantly enhanced spawning and meiotic synchrony
C. virginica [7]; low levels (5×), over three trials, Chi-square p<0.001
  spawning compared with controls: significantly greater spawning than was observed in controls
C. virginica [7]; three trials of Table 1, chi-squared analysis
  number of control females that released oocytes versus estradiol-injected females: significantly less

Reference: US7013836B1, “Enhancing maturation of oocytes in bivalves” (Board of Supervisors of Louisiana State University and …, priority 2002, dated 2006)
